{"source": "PubChem BioAssay AID1259308 (NCATS, 2017)", "assay": "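Knock-downs that increase output of a recombinant reporter protein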 (primary screen)", "system": "human HEK293 embryonic kidney cells stably expressing firefly luciferase (HEK-CMV-Luc2-Hygro)", "reagent": "single siRNA against human genes, 0.8 pmol siRNA per well", "duration": "72 h", "read-out": "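Reporter luminescence and viable-cell signal on separate replicate plates, given as percent of non-targeting control and median/MAD z-scores, plus per-cell luciferase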", "reading the numbers": "total luciferase, z-score: higher = more reporter protein produced", "active means": "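An siRNA counts as active if its total luciferase robust z-score exceeds 3; genes with two or more such siRNAs out of three were retested with fresh siRNAs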", "meaning of the calls": "active = raised luciferase; inactive = no rise", "note": "This is an unselected part of about 59,000 reagents tested. Of all reagents, about 1,510 (2.6%) were called active. 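Calls use total luciferase alone and ignore viability, so some active siRNAs may act by altering cell number.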 The numbers tell different reagents against one gene apart. Not all columns of the deposit are shown."}
{"target": "DBX2", "reagent no.": 1, "total luciferase, z-score": 0.356, "Call": "inactive"}
{"target": "DBX2", "reagent no.": 2, "total luciferase, z-score": 0.0239, "Call": "inactive"}
{"target": "DBX2", "reagent no.": 3, "total luciferase, z-score": 0.726, "Call": "inactive"}
{"target": "HCST", "reagent no.": 1, "total luciferase, z-score": -3.05, "Call": "inactive"}
{"target": "HCST", "reagent no.": 2, "total luciferase, z-score": -0.114, "Call": "inactive"}
{"target": "HCST", "reagent no.": 3, "total luciferase, z-score": -0.466, "Call": "inactive"}
{"target": "BANF2", "reagent no.": 1, "total luciferase, z-score": 0.441, "Call": "inactive"}
{"target": "BANF2", "reagent no.": 2, "total luciferase, z-score": 0.613, "Call": "inactive"}
{"target": "BANF2", "reagent no.": 3, "total luciferase, z-score": -0.111, "Call": "inactive"}
{"target": "TMEM255A", "reagent no.": 1, "total luciferase, z-score": -1.11, "Call": "inactive"}
{"target": "TMEM255A", "reagent no.": 2, "total luciferase, z-score": 1.56, "Call": "inactive"}
{"target": "TMEM255A", "reagent no.": 3, "total luciferase, z-score": 3.75, "Call": "active"}
